Reference: PubChem BioAssay AID248 (DTP/NCI, 2004)
The list does not hold the whole screen: it is rich in T/C values a quarter to a half above the control, in often repeated tests (any T/C) and in doses without a T/C. Further doses and runs are listed elsewhere. T/C is the treated group as % of the vehicle group. Some entries give survivors of the animals treated and no T/C: the source files T/C as zero there, which appears to mark a toxic dose or a test without result, not a measured value. Some survivor counts are full or nearly so, which does not show that the dose was tolerated: survival well below the control is almost never listed, so the zero probably covers shortened survival too. Survivors were counted at the toxicity check, usually on the fifth day, unless a day is given; later deaths do not show. Schedules are NCI's codes, read here as Q, the interval in days (D) or hours (H), X, the number of doses. Additions like (4×) give the number of equal values in this list. Some schedule codes hold Z or #, which are not explained here. For survival time, this PubChem deposit counts one and a half times the control or more as active, and values a quarter to a half above the control carry no call in these data; other NCI protocols may use other cut-offs.

Test system: L1210 leukemia ip in BDF1 mice, survival T/C
Experiment: NCI In Vivo Anticancer Drug Screen. Data for tumor model L1210 Leukemia (intraperitoneal) in B6D2F1 (BDF1) mice
Details: T/C endpoint: mean survival time, higher T/C = longer survival
[1] = dose: 300.0 mg/kg/injection, schedule: Q01DX001 (ip), vehicle: saline
[2] = dose: 100.0 mg/kg/injection, schedule: Q04DX002 (ip), vehicle: saline with Tween-80
[3] = dose: 400.0 mg/kg/injection, schedule: Q04DX002 (ip), vehicle: saline with Tween-80
[4] = dose: 200.0 mg/kg/injection, schedule: Q04DX002 (ip), vehicle: saline with Tween-80
[5] = dose: 100.0 mg/kg/injection, schedule: Q01DX009 (ip), vehicle: saline with Tween-80
[6] = dose: 400.0 mg/kg/injection, schedule: Q01DX009 (ip), vehicle: saline with Tween-80
[7] = dose: 400.0 mg/kg/injection, schedule: Q04DX003 (ip), vehicle: saline
[8] = dose: 100.0 mg/kg/injection, schedule: Q04DX003 (ip), vehicle: saline with Tween-80
[9] = dose: 200.0 mg/kg/injection, schedule: Q04DX003 (ip), vehicle: saline with Tween-80
[10] = dose: 400.0 mg/kg/injection, schedule: Q04DX003 (ip), vehicle: saline with Tween-80
[11] = dose: 200.0 mg/kg/injection, schedule: Q01DX001 (ip), vehicle: saline
[12] = dose: 400.0 mg/kg/injection, schedule: Q01DX001 (ip), vehicle: carboxymethylcellulose (CMC)
[13] = dose: 400.0 mg/kg/injection, schedule: Q04DX002 (ip), vehicle: Klucel (hydroxypropylcellulose) (HPC)
[14] = dose: 100.0 mg/kg/injection, schedule: Q01DX001 (ip), vehicle: carboxymethylcellulose (CMC)
[15] = dose: 400.0 mg/kg/injection, schedule: Q01DX001 (ip), vehicle: saline
[16] = dose: 100.0 mg/kg/injection, schedule: Q01DX001 (ip), vehicle: saline with Tween-80

Compound: Nc1nc(N)nc(N)n1
- survivor count (dose: 100.0 mg/kg/injection, schedule: Q04DX002 (ip), vehicle: Klucel (hydroxypropylcellulose) (HPC)): 3 of 3
- survivor count (dose: 1500.0 mg/kg/injection, schedule: Q01DX009 (ip), vehicle: Klucel (hydroxypropylcellulose) (HPC)): 6 of 6
- survivor count (dose: 2000.0 mg/kg/injection, schedule: Q01DX009 (ip), vehicle: Klucel (hydroxypropylcellulose) (HPC)): 6 of 6

Compound: C[N+](C)(CCl)C1CCCCC1
- survivor count (dose: 150.0 mg/kg/injection, schedule: Q01DX001 (ip), vehicle: saline): 0 of 6
- survivor count [1]: 0 of 6

Compound: O=C(O)c1cccc2c1-c1ccccc1C(Br)C2Br (centres undefined)
- survivor count [2]: 3 of 3
- survivor count [3]: 2 of 3

Compound: C[CH2][Ge]([CH2]C)([CH2]C)[CH2]C#N
- survivor count [2]: 0 of 3
- survivor count [4]: 0 of 3
- survivor count [3]: 0 of 3

Compound: C/C(=N/N=C(N)N)c1ccc(NC(=S)Nc2ccc(/C(C)=N/N=C(N)N)cc2)cc1
- survivor count (dose: 40.0 mg/kg/injection, schedule: Q01DX009 (ip), vehicle: water): 1 of 6
- survivor count (dose: 80.0 mg/kg/injection, schedule: Q01DX009 (ip), vehicle: water): 0 of 6
- survivor count (dose: 160.0 mg/kg/injection, schedule: Q01DX009 (ip), vehicle: water): 0 of 6
- survivor count (dose: 320.0 mg/kg/injection, schedule: Q01DX009 (ip), vehicle: water): 0 of 6

Compound: O=C(Nc1ccc(Br)cc1)c1nc(Br)[nH]c1Br
- survivor count [5]: 1 of 6
- survivor count (dose: 200.0 mg/kg/injection, schedule: Q01DX009 (ip), vehicle: saline with Tween-80): 0 of 6
- survivor count [6]: 0 of 6

Compound: S=c1c2[nH]cnc2ncn1C1CCCC1
- T/C (dose: 22.0 mg/kg/injection, schedule: Q01DX009 (ip), vehicle: saline with Tween-80): 125 % of control
- survivor count (dose: 40.0 mg/kg/injection, schedule: Q01DX001 (ip), vehicle: other): 2 of 6
- survivor count (dose: 50.0 mg/kg/injection, schedule: Q01DX009 (ip), vehicle: saline with Tween-80): 1 of 6
- survivor count (dose: 80.0 mg/kg/injection, schedule: Q01DX001 (ip), vehicle: other): 0 of 6
- survivor count (dose: 100.0 mg/kg/injection, schedule: Q01DX001 (ip), vehicle: other): 0 of 6
- survivor count (dose: 200.0 mg/kg/injection, schedule: Q01DX001 (ip), vehicle: other): 0 of 6
- survivor count (dose: 400.0 mg/kg/injection, schedule: Q01DX001 (ip), vehicle: other): 0 of 6

Compound: NN1N=Nc2cccc3cccc1c23
- survivor count [7]: 1 of 6

Compound: Cc1onc(-c2ccccc2Cl)c1C(=O)NC(=S)NC1CC(C)CC(C)(C)C1 (centres undefined)
- survivor count [2]: 3 of 3
- survivor count [4]: 3 of 3
- survivor count [3]: 3 of 3

Compound: O=[N+]([O-])c1cccc2nc(N/N=C/c3ccccc3O)ccc12
- survivor count (dose: 100.0 mg/kg/injection, schedule: Q01DX009 (ip), vehicle: water): 6 of 6

Compound: COc1ccccc1[As](=O)(O)CC(O)COc1ccccc1 (centres undefined)
- survivor count (dose: 50.0 mg/kg/injection, schedule: Q04DX003 (ip), vehicle: saline with Tween-80): 5 of 6
- survivor count [8]: 0 of 6 (2×)
- survivor count [9]: 0 of 6
- survivor count [10]: 0 of 6

Compound: CCOP(=O)(OCC)OCc1cnc(SC)nc1N
- survivor count [11]: 0 of 6

Compound: NC(N)=N/N=C(/CC(=O)c1ccccc1)c1ccccc1
- survivor count (dose: 120.0 mg/kg/injection, schedule: Q01DX Z (ip), vehicle: carboxymethylcellulose (CMC)): 1 of 6
- survivor count (dose: 960.0 mg/kg/injection, schedule: Q01DX Z (oral), vehicle: carboxymethylcellulose (CMC)): 1 of 6

Compound: OCCCCCCN=Cc1ccccc1O.OCCCCCCN=Cc1ccccc1O.[Cu]
- survivor count (dose: 150.0 mg/kg/injection, schedule: Q01DX001 (ip), vehicle: other): 0 of 6
- survivor count (dose: 300.0 mg/kg/injection, schedule: Q01DX001 (ip), vehicle: other): 2 of 6

Compound: COc1cccc(/C(C)=C2\SC(=S)NC2=O)c1
- survivor count [12]: 1 of 4

Compound: C[N+](C)(C)N=C1CCC2(CC1)c1ccccc1-c1ccccc12
- survivor count (dose: 50.0 mg/kg/injection, schedule: Q01DX009 (ip), vehicle: saline): 1 of 6
- survivor count [8]: 3 of 6
- survivor count [9]: 0 of 6
- survivor count [10]: 0 of 6

Compound: O=[N+]([O-])c1cc([As](=O)(O)O)ccc1Cl
- survivor count (dose: 200.0 mg/kg/injection, schedule: Q01DX009 (ip), vehicle: Klucel (hydroxypropylcellulose) (HPC)): 3 of 6
- survivor count (dose: 400.0 mg/kg/injection, schedule: Q04DX003 (ip), vehicle: Klucel (hydroxypropylcellulose) (HPC)): 0 of 6

Compound: O=C(O)c1c(F)cccc1F
- survivor count (dose: 200.0 mg/kg/injection, schedule: Q04DX003 (ip), vehicle: Klucel (hydroxypropylcellulose) (HPC)): 1 of 3

Compound: O=C1CN=C(c2ccccn2)c2cc(Br)ccc2N1
- T/C [13]: 142 % of control
- T/C (dose: 600.0 mg/kg/injection, schedule: Q04DX002 (ip), vehicle: Klucel (hydroxypropylcellulose) (HPC)): 127 % of control

Compound: CC(CNN=C(N)N)NN=C(N)N (centres undefined)
- survivor count (dose: 240.0 mg/kg/injection, schedule: Q01DX Z (ip), vehicle: saline): 2 of 6

Compound: CNCCc1cc2c(cc1C=O)OCO2
- survivor count [1]: 0 of 6

Compound: ClC1(Cl)CC2CC1C1C3CC(C4OC34)C21 (centres undefined)
- survivor count [14]: 0 of 4
- survivor count (dose: 200.0 mg/kg/injection, schedule: Q01DX001 (ip), vehicle: carboxymethylcellulose (CMC)): 1 of 4
- survivor count [12]: 0 of 4

Compound: CSCCC(C#N)c1ccccc1 (centres undefined)
- survivor count [10]: 1 of 6
- survivor count [7]: 1 of 6

Compound: C1=Cc2ccccc2Sc2ccccc21
- survivor count [14]: 4 of 4
- survivor count [12]: 4 of 4

Compound: CC1([CH2][Hg][I])CS(=O)(=O)CC(C)([CH2][Hg][I])O1 (centres undefined)
- survivor count (dose: 100.0 mg/kg/injection, schedule: Q01DX001 (ip), vehicle: saline): 0 of 4
- survivor count [11]: 0 of 4
- survivor count [15]: 0 of 4

Compound: CC1(C)NC(=O)NC(=O)C1Br (centres undefined)
- survivor count (dose: 200.0 mg/kg/injection, schedule: Q01DX Z (ip), vehicle: methylcellulose (MC)): 3 of 6

Compound: CNC(=S)N/N=C/c1ccc(N(C)CCC#N)cc1
- survivor count (dose: 400.0 mg/kg/injection, schedule: Q01DX009 (ip), vehicle: Klucel (hydroxypropylcellulose) (HPC)): 0 of 6

Compound: CNC(=S)N/N=C\C=N/NC(=S)NC
- survivor count (dose: 1.0 micrograms/kg/injection, schedule: Q01DX009 (ip), vehicle: carboxymethylcellulose (CMC)): 0 of 6
- survivor count (dose: 5.0 micrograms/kg/injection, schedule: Q01DX009 (ip), vehicle: carboxymethylcellulose (CMC)): 0 of 6
- survivor count (dose: 10.0 micrograms/kg/injection, schedule: Q01DX009 (ip), vehicle: carboxymethylcellulose (CMC)): 0 of 6
- survivor count (dose: 50.0 micrograms/kg/injection, schedule: Q01DX009 (ip), vehicle: carboxymethylcellulose (CMC)): 0 of 6

Compound: COc1ccc(Cl)cc1NC(=O)Oc1ccccn1
- survivor count [16]: 6 of 6
- survivor count [5]: 3 of 3
- survivor count [6]: 3 of 6

Compound: CN1CCCCCC(=N\O)/C(=N/O)CCCCC1
- survivor count [15]: 2 of 6

Compound: O=C(NCc1ccncc1)C(c1ccccc1)c1ccccc1
- survivor count [13]: 3 of 3

Compound: COc1ccc2nc(N=Nc3c(N)nc(N)nc3N)sc2c1
- survivor count [15]: 3 of 4

Compound: CCOC(OCC)c1nc(NC(C)=O)[nH]c(=O)c1CCCCc1ccccc1
- survivor count [16]: 6 of 6

Compound: C1CCC2C[N-]CCC2C1.C1CCC2C[N-]CCC2C1.C1CCC2C[N-]CCC2C1.C1CCC2C[N-]CCC2C1.[I][Fe][I] (centres undefined)
- survivor count (dose: 200.0 mg/kg/injection, schedule: Q01DX009 (ip), vehicle: saline): 3 of 6
